In PMC5431985:
These are yes or no findings as the source states them, for the method shown. Binding seen in cells or lysates may run through a third protein. Some results given as binding are weak or reduced against the parent protein; the word gives no strength. For some assays here: Sequences can lack the tags named with a protein.

Protein sequences, listed by entry. Tags and fused reporters are not part of them.
UniProt P37231: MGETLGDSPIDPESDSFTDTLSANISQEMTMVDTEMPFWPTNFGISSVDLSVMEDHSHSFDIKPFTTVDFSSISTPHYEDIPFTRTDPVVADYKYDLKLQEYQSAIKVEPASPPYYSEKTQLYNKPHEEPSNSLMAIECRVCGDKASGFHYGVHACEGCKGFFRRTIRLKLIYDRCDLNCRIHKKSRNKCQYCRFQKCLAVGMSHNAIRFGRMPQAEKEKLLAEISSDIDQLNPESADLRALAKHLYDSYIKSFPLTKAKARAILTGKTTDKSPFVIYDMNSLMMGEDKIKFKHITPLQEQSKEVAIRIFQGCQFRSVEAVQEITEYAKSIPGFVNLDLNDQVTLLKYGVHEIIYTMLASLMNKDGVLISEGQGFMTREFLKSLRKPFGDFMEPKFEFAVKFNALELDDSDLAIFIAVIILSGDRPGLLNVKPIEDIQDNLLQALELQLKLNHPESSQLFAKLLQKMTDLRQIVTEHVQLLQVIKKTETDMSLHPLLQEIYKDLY
UniProt P37238: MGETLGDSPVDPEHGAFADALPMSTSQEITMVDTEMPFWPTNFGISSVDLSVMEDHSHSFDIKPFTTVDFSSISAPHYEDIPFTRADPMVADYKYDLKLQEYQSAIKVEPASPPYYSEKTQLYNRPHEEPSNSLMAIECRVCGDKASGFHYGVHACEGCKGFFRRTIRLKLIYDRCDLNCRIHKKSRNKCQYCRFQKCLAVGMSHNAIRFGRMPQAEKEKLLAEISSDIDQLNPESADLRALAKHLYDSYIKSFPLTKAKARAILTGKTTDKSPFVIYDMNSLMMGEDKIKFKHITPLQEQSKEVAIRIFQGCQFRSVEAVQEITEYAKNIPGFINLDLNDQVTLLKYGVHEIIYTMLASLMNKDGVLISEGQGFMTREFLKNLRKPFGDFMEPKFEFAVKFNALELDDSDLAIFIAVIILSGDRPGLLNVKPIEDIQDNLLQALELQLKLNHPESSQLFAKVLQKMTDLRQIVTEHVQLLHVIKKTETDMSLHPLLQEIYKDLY

How the values were obtained:
[1] = biological target: T1, Flag-tagged WISP1 (Wnt1-inducible signaling pathway protein-1) (human) (UniProt O95388); assay: co-IP; MEF cells transfected with 2 µg Flag-WISP1 and 2 µg PPARγ expression vectors for 24 hours; RIPA lysates; IP with anti-Flag or anti-PPARγ overnight, protein G Sepharose, washed five times with TNMG buffer (20 mM Tris-HCl pH 8, 150 mM NaCl, 5 mM MgCl2, 0.5% NP40, 10% glycerol); IB with anti-PPARγ or anti-Flag
T1 sequence: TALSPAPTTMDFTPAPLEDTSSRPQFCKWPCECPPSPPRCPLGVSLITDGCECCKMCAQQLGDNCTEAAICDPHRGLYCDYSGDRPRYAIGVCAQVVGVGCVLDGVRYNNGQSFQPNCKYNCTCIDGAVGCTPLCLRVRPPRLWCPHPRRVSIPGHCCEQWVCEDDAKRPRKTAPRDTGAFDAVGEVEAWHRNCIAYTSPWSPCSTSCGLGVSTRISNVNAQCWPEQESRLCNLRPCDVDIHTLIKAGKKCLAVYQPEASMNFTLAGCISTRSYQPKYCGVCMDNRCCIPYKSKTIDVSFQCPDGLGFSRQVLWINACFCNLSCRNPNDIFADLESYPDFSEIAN

[2] = biological target: T2, endogenous WISP1 (mouse (endogenous in MEF)) (UniProt O54775); assay: co-IP; untransfected MEF cell lysates; IP with anti-WISP1 or anti-PPARγ, IB with anti-PPARγ or anti-WISP1; IgG immunoprecipitations as controls
T2 sequence: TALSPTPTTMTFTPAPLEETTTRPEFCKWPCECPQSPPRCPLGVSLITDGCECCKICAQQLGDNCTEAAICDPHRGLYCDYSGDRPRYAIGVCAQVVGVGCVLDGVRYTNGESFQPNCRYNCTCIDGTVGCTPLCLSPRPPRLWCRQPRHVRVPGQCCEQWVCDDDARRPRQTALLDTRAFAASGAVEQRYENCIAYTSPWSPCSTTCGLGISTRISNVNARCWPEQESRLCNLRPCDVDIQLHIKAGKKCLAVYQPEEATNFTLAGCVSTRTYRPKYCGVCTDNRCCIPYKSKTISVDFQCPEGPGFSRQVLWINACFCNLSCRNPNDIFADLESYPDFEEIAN

| binding [1] | binding [2] | Substance |
| --- | --- | --- |
| binds | – | PPARγ (peroxisome proliferator-activated receptor γ), from expression vector (from UniProt P37231 1-505) |
| – | binds | endogenous PPARγ (from UniProt P37238 1-505) |
